No constants are given. Whether binding was seen depends on the method and setting. In cells and extracts the contact can be indirect. Some results given as binding are weak or reduced against the parent protein; the word gives no strength. Each block holds one binder with its values, some of them ahead of it.
Target: apoptosis signal-regulating kinase 1 (ASK1) (mouse (endogenous in NSC34)) (UniProt O35099)
Assay: co-IP; lysates of NSC34 cells stably expressing Flag-tagged SOD1(WT) or SOD1(G93A) with GFP (control) or CIIA siRNA; immunoprecipitation with antibodies to ASK1 (3 h at 4°C, then 1 h with protein G-agarose), immunoblot with antibodies to TRAF2 or CIIA

Protein sequences, listed by entry. Tags and fused reporters are not part of them.
UniProt O35099: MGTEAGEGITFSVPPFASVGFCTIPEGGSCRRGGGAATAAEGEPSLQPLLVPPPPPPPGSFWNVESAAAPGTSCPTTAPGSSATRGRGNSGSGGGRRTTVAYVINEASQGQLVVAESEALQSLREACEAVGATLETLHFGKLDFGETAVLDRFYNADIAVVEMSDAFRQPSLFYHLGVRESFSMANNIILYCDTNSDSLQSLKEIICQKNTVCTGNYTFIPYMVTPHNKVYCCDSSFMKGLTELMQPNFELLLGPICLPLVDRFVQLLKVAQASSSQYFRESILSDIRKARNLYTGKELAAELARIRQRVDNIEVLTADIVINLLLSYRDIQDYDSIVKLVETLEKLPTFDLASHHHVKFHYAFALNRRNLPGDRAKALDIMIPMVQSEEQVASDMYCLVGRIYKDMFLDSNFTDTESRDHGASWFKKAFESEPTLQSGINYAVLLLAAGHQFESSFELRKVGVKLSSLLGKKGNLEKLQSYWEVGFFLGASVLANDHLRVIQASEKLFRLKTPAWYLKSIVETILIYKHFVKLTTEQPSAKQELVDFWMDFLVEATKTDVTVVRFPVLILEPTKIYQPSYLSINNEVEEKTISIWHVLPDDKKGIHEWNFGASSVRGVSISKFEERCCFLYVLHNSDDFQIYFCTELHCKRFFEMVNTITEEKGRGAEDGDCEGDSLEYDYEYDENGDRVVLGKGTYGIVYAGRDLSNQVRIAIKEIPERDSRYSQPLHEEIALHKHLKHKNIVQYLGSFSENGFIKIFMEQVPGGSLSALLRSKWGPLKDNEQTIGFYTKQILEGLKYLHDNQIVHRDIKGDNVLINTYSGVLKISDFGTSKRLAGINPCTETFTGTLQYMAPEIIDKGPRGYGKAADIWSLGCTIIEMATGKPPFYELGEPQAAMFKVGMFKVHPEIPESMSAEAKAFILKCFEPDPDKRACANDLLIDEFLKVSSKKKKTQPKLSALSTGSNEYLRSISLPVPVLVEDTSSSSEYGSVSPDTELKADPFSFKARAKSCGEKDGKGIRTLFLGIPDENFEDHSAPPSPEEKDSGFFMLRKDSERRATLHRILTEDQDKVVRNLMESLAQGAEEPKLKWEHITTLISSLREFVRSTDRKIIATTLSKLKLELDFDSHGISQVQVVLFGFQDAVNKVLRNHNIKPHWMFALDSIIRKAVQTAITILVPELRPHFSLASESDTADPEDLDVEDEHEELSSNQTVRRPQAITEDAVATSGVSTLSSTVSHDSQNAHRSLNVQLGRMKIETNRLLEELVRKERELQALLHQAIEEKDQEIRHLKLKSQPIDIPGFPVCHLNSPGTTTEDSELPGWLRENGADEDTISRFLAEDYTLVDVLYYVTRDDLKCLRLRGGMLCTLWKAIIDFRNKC

- binding: binds
B1: TRAF2 (protein, UniProt P39429 1-501)
chain: MAAASVTSPGSLELLQPGFSKTLLGTRLEAKYLCSACKNILRRPFQAQCGHRYCSFCLTSILSSGPQNCAACVYEGLYEEGISILESSSAFPDNAARREVESLPAVCPNDGCTWKGTLKEYESCHEGLCPFLLTECPACKGLVRLSEKEHHTEQECPKRSLSCQHCRAPCSHVDLEVHYEVCPKFPLTCDGCGKKKIPRETFQDHVRACSKCRVLCRFHTVGCSEMVETENLQDHELQRLREHLALLLSSFLEAQASPGTLNQVGPELLQRCQILEQKIATFENIVCVLNREVERVAVTAEACSRQHRLDQDKIEALSNKVQQLERSIGLKDLAMADLEQKVSELEVSTYDGVFIWKISDFTRKRQEAVAGRTPAIFSPAFYTSRYGYKMCLRVYLNGDGTGRGTHLSLFFVVMKGPNDALLQWPFNQKVTLMLLDHNNREHVIDAFRPDVTSSSFQRPVSDMNIASGCPLFCPVSKMEAKNSYVRDDAIFIKAIVDLTGL

- binding: binds
B2: caspase-activated DNase inhibitor that interacts with ASK1 (CIIA) (protein, UniProt Q9D1C8 1-221)
chain: MFHGIPATPGVGAPGNKPELYEEVKLYKNAREREKYDNMAELFAVVKTMQALEKAYIKDCVTPNEYTAACSRLLVQYKAAFRQVQGSEISSIDEFCRKFRLDCPLAMERIKEDRPITIKDDKGNLNRCIADVVSLFITVMDKLRLEIRAMDEIQPDLRELMETMHRMSHLPPDFEGRQTVSQWLQTLSGMSASDELDDSQVRQMLFDLESAYNAFNRFLHA

From paper PMC4071562
